Compound in assay [1]: ClCC(=O)N[C@@H]1CCCc2ccccc12
Put plainly: log2 mean competition ratio of IA-DTB cysteine labelling (DMSO/compound) (log2 ratio); higher = stronger cysteine engagement by compound. The following applies: treatment time: 4 h, cell line lysate: HEK293T. As for the experimental part:
(§1)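 IA-DTB competitive cysteine chemoproteomics in HEK293T RIPA lysate. Lysates were treated with compound 29 or 30 at 50 or 200 µM for 4 h, then IA-DTB (500 µM, 1 h), trypsin-digested, NeutrAvidin-enriched and analysed by diaPASEF. Competition ratio = intensity DMSO / intensity compound (n=4 treated, n=64 DMSO); binding: mean log2 CR ≥ 1 and p ≤ 0.05 plus QC filters. Target is the cysteine site.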

By UniProt entry, the sequences of proteins in these tests, tags left out. Where a name states a change or a piece, a line headed by the entry shows the natural chain unless it says otherwise.
UniProt Q96GK7: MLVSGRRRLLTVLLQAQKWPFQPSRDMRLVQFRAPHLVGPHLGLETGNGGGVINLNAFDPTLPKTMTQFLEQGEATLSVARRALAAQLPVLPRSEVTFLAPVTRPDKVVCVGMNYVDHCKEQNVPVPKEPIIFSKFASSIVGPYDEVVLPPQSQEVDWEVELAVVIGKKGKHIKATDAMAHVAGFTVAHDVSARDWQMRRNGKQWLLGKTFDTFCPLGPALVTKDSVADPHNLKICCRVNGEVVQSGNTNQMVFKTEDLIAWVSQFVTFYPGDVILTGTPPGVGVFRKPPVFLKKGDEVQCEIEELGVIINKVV
UniProt Q9NRY5: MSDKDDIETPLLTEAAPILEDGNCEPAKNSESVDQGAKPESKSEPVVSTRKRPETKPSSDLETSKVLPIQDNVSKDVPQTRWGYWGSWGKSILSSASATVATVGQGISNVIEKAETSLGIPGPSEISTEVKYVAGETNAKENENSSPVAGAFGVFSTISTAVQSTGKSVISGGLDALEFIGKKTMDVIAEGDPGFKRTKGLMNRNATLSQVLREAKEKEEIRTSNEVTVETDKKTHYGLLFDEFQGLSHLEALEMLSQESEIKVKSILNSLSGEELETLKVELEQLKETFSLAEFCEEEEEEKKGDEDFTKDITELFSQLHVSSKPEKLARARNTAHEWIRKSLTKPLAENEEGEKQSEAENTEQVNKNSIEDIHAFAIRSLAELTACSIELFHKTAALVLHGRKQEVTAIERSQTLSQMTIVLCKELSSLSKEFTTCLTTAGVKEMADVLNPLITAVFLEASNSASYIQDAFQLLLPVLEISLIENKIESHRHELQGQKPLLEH
UniProt Q96A65: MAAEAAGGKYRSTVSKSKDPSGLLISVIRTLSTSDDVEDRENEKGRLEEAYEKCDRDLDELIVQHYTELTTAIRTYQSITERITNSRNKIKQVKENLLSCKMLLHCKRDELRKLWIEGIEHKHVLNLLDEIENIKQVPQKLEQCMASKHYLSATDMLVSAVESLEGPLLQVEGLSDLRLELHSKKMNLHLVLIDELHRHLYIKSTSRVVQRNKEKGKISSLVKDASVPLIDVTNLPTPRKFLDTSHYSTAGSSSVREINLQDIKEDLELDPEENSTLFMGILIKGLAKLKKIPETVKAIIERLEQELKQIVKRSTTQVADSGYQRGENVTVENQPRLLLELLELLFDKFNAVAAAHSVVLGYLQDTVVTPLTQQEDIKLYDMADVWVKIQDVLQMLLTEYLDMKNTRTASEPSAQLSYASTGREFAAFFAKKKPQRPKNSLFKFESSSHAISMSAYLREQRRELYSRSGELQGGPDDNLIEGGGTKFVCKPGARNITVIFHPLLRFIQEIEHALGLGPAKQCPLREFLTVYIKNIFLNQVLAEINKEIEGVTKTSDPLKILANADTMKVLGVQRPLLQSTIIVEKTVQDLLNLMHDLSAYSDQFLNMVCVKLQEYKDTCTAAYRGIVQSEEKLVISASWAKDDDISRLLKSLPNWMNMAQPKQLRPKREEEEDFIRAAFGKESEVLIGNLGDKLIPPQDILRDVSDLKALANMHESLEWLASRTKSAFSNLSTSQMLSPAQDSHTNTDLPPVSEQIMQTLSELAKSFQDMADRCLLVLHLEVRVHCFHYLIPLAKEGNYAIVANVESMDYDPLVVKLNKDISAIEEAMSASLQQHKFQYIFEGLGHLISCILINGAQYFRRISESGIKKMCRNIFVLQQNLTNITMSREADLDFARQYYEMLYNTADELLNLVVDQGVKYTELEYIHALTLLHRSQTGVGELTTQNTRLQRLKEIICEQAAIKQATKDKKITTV
UniProt Q14674: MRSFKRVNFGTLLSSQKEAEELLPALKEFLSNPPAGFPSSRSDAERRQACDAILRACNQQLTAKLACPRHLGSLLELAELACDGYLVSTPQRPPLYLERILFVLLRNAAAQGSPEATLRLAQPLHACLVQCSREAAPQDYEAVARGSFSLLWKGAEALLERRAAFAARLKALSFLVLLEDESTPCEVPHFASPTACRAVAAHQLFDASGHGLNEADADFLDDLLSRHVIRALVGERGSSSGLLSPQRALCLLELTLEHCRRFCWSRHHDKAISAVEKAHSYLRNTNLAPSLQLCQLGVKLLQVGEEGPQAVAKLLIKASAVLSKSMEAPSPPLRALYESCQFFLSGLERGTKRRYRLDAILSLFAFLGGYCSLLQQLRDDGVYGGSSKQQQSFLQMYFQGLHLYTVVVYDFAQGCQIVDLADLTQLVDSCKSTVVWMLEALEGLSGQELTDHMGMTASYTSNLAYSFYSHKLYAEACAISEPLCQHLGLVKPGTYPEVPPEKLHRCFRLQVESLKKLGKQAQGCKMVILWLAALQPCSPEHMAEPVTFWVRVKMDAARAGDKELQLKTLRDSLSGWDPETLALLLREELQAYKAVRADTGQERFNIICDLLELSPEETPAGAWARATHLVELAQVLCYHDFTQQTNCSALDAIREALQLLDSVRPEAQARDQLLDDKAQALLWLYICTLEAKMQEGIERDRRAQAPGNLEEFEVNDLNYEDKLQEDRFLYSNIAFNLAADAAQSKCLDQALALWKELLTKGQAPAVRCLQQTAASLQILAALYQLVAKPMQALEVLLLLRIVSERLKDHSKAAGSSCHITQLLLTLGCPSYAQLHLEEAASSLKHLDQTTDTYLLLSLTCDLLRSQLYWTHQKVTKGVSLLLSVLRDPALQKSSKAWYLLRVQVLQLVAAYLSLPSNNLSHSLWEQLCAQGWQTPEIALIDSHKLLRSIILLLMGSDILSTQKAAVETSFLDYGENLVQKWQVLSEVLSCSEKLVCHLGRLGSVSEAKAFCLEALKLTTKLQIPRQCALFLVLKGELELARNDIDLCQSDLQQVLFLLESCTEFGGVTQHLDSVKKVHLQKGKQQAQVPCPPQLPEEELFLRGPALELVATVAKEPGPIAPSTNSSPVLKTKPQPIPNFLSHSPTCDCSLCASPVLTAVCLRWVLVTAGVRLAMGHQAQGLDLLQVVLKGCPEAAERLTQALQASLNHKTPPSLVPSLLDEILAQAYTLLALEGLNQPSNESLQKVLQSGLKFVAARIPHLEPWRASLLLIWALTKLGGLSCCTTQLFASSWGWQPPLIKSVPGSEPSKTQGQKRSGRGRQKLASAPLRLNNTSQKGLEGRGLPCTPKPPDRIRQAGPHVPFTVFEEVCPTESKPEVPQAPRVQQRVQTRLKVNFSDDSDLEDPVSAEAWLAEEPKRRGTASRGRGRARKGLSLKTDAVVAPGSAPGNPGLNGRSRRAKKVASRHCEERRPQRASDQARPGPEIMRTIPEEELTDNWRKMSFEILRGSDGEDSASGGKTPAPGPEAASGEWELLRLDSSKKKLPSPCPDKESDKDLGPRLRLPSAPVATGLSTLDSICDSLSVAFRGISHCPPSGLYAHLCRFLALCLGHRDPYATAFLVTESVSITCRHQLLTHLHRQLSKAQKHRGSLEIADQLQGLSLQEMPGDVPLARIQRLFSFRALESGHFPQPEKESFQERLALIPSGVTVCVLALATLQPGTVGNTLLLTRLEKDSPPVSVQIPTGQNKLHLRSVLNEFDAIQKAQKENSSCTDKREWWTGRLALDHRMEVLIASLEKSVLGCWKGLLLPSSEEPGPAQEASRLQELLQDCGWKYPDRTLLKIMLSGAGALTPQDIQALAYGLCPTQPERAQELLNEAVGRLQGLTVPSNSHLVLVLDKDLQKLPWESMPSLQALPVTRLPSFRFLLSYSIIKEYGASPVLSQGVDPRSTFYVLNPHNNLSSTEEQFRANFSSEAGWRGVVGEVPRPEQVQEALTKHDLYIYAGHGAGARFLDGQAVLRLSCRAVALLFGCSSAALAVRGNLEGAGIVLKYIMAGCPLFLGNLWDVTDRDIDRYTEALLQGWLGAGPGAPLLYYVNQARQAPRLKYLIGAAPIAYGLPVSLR
UniProt P28715: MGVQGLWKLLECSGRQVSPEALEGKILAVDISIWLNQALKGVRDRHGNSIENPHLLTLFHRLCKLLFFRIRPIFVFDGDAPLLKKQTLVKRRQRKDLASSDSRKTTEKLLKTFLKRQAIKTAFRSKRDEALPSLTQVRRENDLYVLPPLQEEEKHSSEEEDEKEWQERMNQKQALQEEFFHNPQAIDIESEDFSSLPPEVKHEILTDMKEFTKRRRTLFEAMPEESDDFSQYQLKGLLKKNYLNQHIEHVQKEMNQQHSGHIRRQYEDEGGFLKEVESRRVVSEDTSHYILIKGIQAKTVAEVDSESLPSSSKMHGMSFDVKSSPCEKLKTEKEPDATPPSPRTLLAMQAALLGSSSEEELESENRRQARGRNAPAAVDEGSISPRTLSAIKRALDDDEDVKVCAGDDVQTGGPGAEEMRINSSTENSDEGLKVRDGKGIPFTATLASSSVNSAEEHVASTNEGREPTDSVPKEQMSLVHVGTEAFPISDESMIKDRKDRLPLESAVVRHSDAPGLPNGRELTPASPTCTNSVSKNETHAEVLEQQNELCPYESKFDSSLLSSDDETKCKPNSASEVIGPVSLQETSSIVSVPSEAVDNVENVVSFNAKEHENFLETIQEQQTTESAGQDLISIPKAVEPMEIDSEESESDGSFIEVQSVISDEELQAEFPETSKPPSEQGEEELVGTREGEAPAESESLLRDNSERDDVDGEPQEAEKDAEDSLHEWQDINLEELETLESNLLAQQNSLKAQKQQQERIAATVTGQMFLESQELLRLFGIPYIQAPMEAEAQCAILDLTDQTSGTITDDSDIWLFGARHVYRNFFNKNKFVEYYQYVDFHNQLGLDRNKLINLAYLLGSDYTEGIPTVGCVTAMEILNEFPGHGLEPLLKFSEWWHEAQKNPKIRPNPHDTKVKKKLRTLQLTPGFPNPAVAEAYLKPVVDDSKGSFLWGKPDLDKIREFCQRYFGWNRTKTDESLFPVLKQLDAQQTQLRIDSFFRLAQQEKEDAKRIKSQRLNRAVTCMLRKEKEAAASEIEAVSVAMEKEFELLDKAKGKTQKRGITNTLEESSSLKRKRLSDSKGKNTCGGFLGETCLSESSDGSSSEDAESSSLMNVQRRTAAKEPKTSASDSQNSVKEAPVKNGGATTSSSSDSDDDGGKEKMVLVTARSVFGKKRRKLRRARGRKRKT
UniProt Q9NVI1: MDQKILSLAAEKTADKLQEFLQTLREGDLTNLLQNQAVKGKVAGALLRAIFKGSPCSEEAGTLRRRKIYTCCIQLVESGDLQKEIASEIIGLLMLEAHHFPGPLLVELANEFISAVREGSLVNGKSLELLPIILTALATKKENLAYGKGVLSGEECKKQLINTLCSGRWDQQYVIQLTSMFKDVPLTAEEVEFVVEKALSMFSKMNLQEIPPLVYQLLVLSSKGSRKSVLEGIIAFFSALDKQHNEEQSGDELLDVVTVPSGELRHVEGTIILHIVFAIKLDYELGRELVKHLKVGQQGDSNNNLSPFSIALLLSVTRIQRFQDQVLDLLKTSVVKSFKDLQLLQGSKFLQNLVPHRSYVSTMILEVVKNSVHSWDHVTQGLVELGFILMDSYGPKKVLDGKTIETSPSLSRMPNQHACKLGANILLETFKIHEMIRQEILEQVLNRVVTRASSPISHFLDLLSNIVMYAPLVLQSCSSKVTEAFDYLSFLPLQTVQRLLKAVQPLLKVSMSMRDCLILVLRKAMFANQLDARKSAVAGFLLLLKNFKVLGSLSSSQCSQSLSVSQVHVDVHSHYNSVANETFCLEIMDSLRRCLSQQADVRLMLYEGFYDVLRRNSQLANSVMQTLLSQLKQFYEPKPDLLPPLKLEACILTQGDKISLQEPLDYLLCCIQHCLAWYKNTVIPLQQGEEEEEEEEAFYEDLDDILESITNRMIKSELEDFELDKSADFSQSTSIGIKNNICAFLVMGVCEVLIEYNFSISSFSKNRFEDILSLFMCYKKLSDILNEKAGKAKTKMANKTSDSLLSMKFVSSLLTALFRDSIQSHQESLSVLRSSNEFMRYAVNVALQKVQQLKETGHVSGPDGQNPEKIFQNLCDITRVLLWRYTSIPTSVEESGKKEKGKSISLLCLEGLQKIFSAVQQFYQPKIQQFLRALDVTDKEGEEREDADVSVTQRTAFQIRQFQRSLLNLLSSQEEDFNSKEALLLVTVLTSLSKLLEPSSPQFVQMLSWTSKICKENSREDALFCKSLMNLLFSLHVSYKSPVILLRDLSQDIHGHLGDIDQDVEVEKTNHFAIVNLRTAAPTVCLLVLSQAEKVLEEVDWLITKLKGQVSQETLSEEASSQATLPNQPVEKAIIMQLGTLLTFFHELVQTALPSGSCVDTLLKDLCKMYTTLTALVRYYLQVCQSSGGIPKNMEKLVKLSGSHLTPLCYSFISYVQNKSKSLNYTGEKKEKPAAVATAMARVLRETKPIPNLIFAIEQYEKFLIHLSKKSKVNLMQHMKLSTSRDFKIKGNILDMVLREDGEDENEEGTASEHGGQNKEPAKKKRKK

Compound in assay [2]: ClCC(=O)N[C@H]1CCCc2ccccc12
Described as above. Conditions: treatment time: 4 h, cell line lysate: HEK293T. The protocol: as §1

Some of the results follow. The data scatter; read single values as rough.

With EPHB2 C620 (UniProt P29323), the “log2 mean competition ratio” value in assay [1] (50 µM) was -0.357; in assay [1] (200 µM), -0.0712; in assay [2] (50 µM) it was -0.512; in assay [2] (200 µM), 0.0189.

For FAHD2A C301 (UniProt Q96GK7), the results for the “log2 mean competition ratio” value in assay [1] (50 µM) and in assay [1] (200 µM) were -0.442 and -0.0165, respectively.

For FAM114A2 C438 (UniProt Q9NRY5), the “log2 mean competition ratio” value is -0.00482 in assay [1] (50 µM), -0.307 in assay [1] (200 µM), -0.242 in assay [2] (50 µM) and -0.303 in assay [2] (200 µM).

In the case of EVI5L C150 (UniProt Q96CN4), the “log2 mean competition ratio” value amounted to 0.0738 in assay [1] (50 µM), 0.191 in assay [1] (200 µM), 0.0606 in assay [2] (50 µM) and 0.519 in assay [2] (200 µM).

As to ETF1 C335 (UniProt P62495), the “log2 mean competition ratio” value was 0.0855 in assay [1] (50 µM) and -0.442 in assay [1] (200 µM).

Consider FAM120B C380 (UniProt Q96EK7), for which the “log2 mean competition ratio” value is -0.282 in assay [1] (50 µM), 0.0744 in assay [1] (200 µM), 0.157 in assay [2] (50 µM) and 0.0563 in assay [2] (200 µM).

For the target ERAP1 C806 (UniProt Q9NZ08), the “log2 mean competition ratio” value in assay [1] (50 µM) is 0.27; in assay [1] (200 µM) it was -0.1; in assay [2] (200 µM) it was 0.00923.

Regarding EME1 C133 (UniProt Q96AY2), the “log2 mean competition ratio” value in assay [1] (50 µM) is -0.155; in assay [1] (200 µM) it was 0.136.

As for ERMP1 C43 (UniProt Q7Z2K6), the figures for the “log2 mean competition ratio” value in assay [1] (50 µM) and in assay [1] (200 µM) were 0.206 and -0.049, respectively.

Turning to EML3 C615 (UniProt Q32P44), the results for the “log2 mean competition ratio” value in assay [1] (50 µM), in assay [1] (200 µM) and in assay [2] (200 µM) were -0.254, 0.0745 and -0.0981, respectively.

Turning to EXOC4 C100 (UniProt Q96A65), the “log2 mean competition ratio” value in assay [1] (50 µM) was -0.048; in assay [1] (200 µM), -0.176.

Consider ESPL1 C1345 (UniProt Q14674), for which the “log2 mean competition ratio” value in assay [1] (50 µM) was 0.0859; in assay [1] (200 µM), 0.152.

As for EPHB3 C772 (UniProt P54753), the “log2 mean competition ratio” value stood at 0.611 in assay [1] (50 µM) and 0.315 in assay [1] (200 µM).

As for FAM120B C380(C404) (UniProt Q96EK7), the entries for the “log2 mean competition ratio” value in assay [1] (50 µM) and in assay [1] (200 µM) were -0.119 and 0.0784, respectively.

As for ERCC5 C529 (UniProt P28715), the “log2 mean competition ratio” value in assay [1] (50 µM) is 0.105; in assay [1] (200 µM), -0.448; in assay [2] (50 µM), -0.102; in assay [2] (200 µM) it was -0.384.

On to FANCI C650 (UniProt Q9NVI1), for which the “log2 mean competition ratio” value was -0.0714 in assay [1] (50 µM) and -0.336 in assay [1] (200 µM).

For ENOSF1 C307 (UniProt Q7L5Y1), the “log2 mean competition ratio” value worked out at 0.469 in assay [1] (50 µM) and 0.855 in assay [1] (200 µM).

As to ELP1 C213 (UniProt O95163), the “log2 mean competition ratio” value is -0.12 in assay [1] (50 µM) and -0.23 in assay [1] (200 µM).

Regarding ESRP2 C86 (UniProt Q9H6T0), the “log2 mean competition ratio” value in assay [1] (50 µM) was -0.188; in assay [1] (200 µM) it was -0.279.

Source of the values: the supplement of paper PMC11732987, “Enantioselective OTUD7B fragment discovery through chemoproteomics screening and high-throughput optimisation” (Communications Chemistry, 2025).
